From paper PMC7862700
The list shows a part of the results, in another mix than the full data. At the low end of the ranking, values are background and their order means little.

The chains behind the UniProt entries cited, without tags or fusion partners. Where a name states a change or a piece, a line headed by the entry shows the natural chain unless it says otherwise.
UniProt Q01892: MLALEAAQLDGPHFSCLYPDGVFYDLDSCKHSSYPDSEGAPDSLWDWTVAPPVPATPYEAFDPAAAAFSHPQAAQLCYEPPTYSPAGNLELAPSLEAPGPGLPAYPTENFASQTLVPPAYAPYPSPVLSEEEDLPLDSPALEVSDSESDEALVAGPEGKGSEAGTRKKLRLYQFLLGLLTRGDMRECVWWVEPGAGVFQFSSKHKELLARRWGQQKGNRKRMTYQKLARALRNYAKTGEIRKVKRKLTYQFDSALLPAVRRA
UniProt P41161: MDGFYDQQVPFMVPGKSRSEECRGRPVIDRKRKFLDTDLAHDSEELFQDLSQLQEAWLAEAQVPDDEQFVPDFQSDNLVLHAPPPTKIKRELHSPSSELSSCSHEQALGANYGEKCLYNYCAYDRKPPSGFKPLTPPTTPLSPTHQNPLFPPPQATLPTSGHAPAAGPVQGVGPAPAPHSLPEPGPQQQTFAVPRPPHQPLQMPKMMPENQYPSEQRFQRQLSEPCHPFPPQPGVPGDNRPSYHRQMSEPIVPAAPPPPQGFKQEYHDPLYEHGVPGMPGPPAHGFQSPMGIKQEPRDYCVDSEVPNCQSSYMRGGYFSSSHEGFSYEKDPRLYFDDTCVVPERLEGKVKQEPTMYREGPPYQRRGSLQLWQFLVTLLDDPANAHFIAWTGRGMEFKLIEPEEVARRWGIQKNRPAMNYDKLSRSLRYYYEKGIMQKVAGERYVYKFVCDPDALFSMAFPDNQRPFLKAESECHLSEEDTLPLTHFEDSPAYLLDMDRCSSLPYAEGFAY
UniProt Q99607: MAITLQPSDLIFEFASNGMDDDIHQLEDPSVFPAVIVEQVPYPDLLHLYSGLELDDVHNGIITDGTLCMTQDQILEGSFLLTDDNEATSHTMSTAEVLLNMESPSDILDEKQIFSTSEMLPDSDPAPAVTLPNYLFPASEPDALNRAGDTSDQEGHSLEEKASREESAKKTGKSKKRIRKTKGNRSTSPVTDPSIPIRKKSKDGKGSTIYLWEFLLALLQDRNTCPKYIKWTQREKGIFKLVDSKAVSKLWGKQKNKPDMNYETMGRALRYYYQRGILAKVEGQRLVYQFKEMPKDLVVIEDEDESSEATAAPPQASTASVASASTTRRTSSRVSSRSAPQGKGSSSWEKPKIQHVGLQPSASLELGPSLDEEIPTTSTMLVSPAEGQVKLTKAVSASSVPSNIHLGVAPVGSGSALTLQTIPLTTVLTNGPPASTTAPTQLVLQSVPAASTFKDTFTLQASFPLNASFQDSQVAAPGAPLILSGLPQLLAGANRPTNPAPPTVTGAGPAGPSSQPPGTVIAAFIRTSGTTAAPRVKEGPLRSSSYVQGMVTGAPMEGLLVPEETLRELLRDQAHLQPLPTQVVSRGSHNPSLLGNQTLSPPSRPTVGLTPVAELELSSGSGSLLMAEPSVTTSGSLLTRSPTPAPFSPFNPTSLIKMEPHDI

Key:
Experiment in all cases: DAPPL (digital affinity profiling via proximity ligation, sequencing)
Conditions in all cases: 10 mM Tris-HCl pH 7.5, 50 mM NaCl, 1 mM DTT, 4% glycerol, room temperature, 30 min; GST-TFs on glutathione beads, 16-mer random dsDNA library, 0.1% …; high values mean tight binding; double strand, one strand shown; scale: fold enrichment (6-mer frequency, TF over GST control)
[1] = molecular target: T1, FLI1 (UniProt Q01543)
T1 sequence: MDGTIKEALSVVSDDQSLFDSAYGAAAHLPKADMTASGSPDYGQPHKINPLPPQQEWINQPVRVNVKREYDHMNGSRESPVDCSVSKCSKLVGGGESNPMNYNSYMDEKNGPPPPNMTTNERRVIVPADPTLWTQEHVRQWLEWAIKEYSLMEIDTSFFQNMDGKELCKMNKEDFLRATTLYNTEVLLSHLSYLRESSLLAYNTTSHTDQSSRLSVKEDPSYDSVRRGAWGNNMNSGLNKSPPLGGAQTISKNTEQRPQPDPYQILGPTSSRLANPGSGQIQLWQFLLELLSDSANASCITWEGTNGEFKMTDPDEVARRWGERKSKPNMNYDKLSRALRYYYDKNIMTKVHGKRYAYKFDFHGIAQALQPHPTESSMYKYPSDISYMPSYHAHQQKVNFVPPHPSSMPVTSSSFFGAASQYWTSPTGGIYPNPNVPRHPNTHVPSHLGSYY

[2] = molecular target: T2, EHF (UniProt Q9NZC4)
T2 sequence: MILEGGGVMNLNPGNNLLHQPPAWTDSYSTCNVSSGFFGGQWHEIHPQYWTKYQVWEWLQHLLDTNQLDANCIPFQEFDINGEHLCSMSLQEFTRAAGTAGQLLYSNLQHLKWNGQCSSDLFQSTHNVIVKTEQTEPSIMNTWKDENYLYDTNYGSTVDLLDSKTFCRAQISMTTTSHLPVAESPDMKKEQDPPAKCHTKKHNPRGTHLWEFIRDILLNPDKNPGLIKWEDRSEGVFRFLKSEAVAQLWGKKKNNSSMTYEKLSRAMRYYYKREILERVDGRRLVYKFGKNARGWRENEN

[3] = molecular target: SPIB (UniProt Q01892)
[4] = molecular target: ETV5 (UniProt P41161)
[5] = molecular target: ELF4 (UniProt Q99607)
[6] = molecular target: T3, ETV2 (UniProt O00321)
T3 sequence: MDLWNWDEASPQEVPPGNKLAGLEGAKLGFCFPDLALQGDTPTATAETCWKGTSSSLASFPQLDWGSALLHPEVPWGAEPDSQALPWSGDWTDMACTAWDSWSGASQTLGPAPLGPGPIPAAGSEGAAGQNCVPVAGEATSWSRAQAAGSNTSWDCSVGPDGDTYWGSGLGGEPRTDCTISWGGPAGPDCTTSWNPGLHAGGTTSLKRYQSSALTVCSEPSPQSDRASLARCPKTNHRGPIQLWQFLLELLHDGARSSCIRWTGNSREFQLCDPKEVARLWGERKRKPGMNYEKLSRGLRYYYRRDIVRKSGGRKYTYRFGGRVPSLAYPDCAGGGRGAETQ

[7] = molecular target: T4, ETV3L (UniProt Q6ZN32)
T4 sequence: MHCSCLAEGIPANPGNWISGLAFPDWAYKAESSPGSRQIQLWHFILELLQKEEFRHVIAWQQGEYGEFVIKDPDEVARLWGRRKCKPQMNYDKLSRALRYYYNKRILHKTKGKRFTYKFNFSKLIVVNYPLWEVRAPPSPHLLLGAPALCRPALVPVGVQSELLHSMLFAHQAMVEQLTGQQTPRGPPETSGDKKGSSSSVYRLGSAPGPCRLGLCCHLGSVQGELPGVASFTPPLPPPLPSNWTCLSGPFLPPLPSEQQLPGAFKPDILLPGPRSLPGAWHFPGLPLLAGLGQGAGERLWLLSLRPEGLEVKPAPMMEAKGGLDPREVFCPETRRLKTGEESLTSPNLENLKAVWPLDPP

**Q.** Which results are given for GGTTGT?
**A.** binding signal [1]: 0.967; binding signal [2]: 0.959; binding signal [3]: 0.911; binding signal [4]: 0.919; binding signal [5]: 0.863; binding signal [6]: 0.969; binding signal [7]: 0.904

**Q.** How did the binding signal [1] turn out when AGATAT was run?
**A.** 0.921

**Q.** What about the binding signal [2] of the same sequence?
**A.** 0.959

**Q.** And the binding signal [3]?
**A.** 0.995

**Q.** And the binding signal [4]?
**A.** 0.965

**Q.** And the binding signal [5]?
**A.** 0.955

**Q.** And the binding signal [6]?
**A.** 0.822

**Q.** And the binding signal [7]?
**A.** 0.978

**Q.** Which binding signal [1] does the source give for GTGCTG here?
**A.** 0.969

**Q.** And the binding signal [2]?
**A.** 0.889

**Q.** And the binding signal [3]?
**A.** 0.84

**Q.** And the binding signal [4]?
**A.** 0.897

**Q.** And the binding signal [5]?
**A.** 0.888

**Q.** And the binding signal [6]?
**A.** 0.908

**Q.** And the binding signal [7]?
**A.** 0.902

**Q.** AGGCAC was tested. Which binding signal [1] did it give?
**A.** 0.855

**Q.** What about the binding signal [2] of the same sequence?
**A.** 0.853

**Q.** What about the binding signal [3] of the same sequence?
**A.** 0.949

**Q.** And the binding signal [4]?
**A.** 0.884

**Q.** What about the binding signal [5] of the same sequence?
**A.** 0.928

**Q.** And the binding signal [6]?
**A.** 0.876

**Q.** What about the binding signal [7] of the same sequence?
**A.** 0.872

**Q.** With GTAGAA as the sequence, how does the binding signal [1] read?
**A.** 0.955

**Q.** And the binding signal [2]?
**A.** 0.902

**Q.** And the binding signal [3]?
**A.** 0.873

**Q.** And the binding signal [4]?
**A.** 0.879

**Q.** What about the binding signal [5] of the same sequence?
**A.** 0.936

**Q.** And the binding signal [6]?
**A.** 0.898

**Q.** And the binding signal [7]?
**A.** 0.893

**Q.** Which results are given for CTGAGG?
**A.** binding signal [1]: 0.807; binding signal [2]: 0.824; binding signal [3]: 0.878; binding signal [4]: 0.818; binding signal [5]: 0.803; binding signal [6]: 0.733; binding signal [7]: 0.865

**Q.** With CGAGTA as the sequence, how does the binding signal [1] read?
**A.** 0.838

**Q.** What about the binding signal [2] of the same sequence?
**A.** 0.797

**Q.** What about the binding signal [3] of the same sequence?
**A.** 0.797

**Q.** And the binding signal [4]?
**A.** 0.866

**Q.** What about the binding signal [5] of the same sequence?
**A.** 0.883

**Q.** What about the binding signal [6] of the same sequence?
**A.** 0.902

**Q.** And the binding signal [7]?
**A.** 0.765

**Q.** GTCTAG was tested. Which binding signal [1] did it give?
**A.** 0.901

**Q.** And the binding signal [2]?
**A.** 0.879

**Q.** What about the binding signal [3] of the same sequence?
**A.** 0.788

**Q.** What about the binding signal [4] of the same sequence?
**A.** 0.847

**Q.** What about the binding signal [5] of the same sequence?
**A.** 0.831

**Q.** What about the binding signal [6] of the same sequence?
**A.** 0.954

**Q.** And the binding signal [7]?
**A.** 0.857

**Q.** Which binding signal [1] does the source give for AGAACC here?
**A.** 0.863

**Q.** And the binding signal [2]?
**A.** 0.914

**Q.** And the binding signal [3]?
**A.** 0.856

**Q.** What about the binding signal [4] of the same sequence?
**A.** 0.917

**Q.** And the binding signal [5]?
**A.** 0.898

**Q.** And the binding signal [6]?
**A.** 0.926

**Q.** And the binding signal [7]?
**A.** 0.909

**Q.** With TTAGTC as the sequence, how does the binding signal [1] read?
**A.** 0.762

**Q.** And the binding signal [2]?
**A.** 0.785

**Q.** What about the binding signal [3] of the same sequence?
**A.** 0.753

**Q.** What about the binding signal [4] of the same sequence?
**A.** 0.806

**Q.** And the binding signal [5]?
**A.** 0.793

**Q.** What about the binding signal [6] of the same sequence?
**A.** 0.821

**Q.** And the binding signal [7]?
**A.** 0.859

**Q.** What does the source list for CAGAAC?
**A.** binding signal [1]: 0.893; binding signal [2]: 0.885; binding signal [3]: 0.91; binding signal [4]: 0.891; binding signal [5]: 0.921; binding signal [6]: 0.893; binding signal [7]: 0.912

**Q.** Which binding signal [1] does the source give for CTGGCG here?
**A.** 0.905

**Q.** What about the binding signal [2] of the same sequence?
**A.** 0.869

**Q.** And the binding signal [3]?
**A.** 0.714

**Q.** What about the binding signal [4] of the same sequence?
**A.** 0.728

**Q.** What about the binding signal [5] of the same sequence?
**A.** 0.866

**Q.** What about the binding signal [6] of the same sequence?
**A.** 0.82

**Q.** And the binding signal [7]?
**A.** 0.824

**Q.** With TAGAAC as the sequence, how does the binding signal [1] read?
**A.** 0.998

**Q.** And the binding signal [2]?
**A.** 0.977

**Q.** What about the binding signal [3] of the same sequence?
**A.** 0.866

**Q.** What about the binding signal [4] of the same sequence?
**A.** 0.946

**Q.** What about the binding signal [5] of the same sequence?
**A.** 0.982

**Q.** What about the binding signal [6] of the same sequence?
**A.** 0.903

**Q.** What about the binding signal [7] of the same sequence?
**A.** 0.954

**Q.** Which binding signal [1] does the source give for GCCATC here?
**A.** 0.903

**Q.** And the binding signal [2]?
**A.** 0.957

**Q.** What about the binding signal [3] of the same sequence?
**A.** 0.964

**Q.** What about the binding signal [4] of the same sequence?
**A.** 0.946

**Q.** What about the binding signal [5] of the same sequence?
**A.** 0.968

**Q.** And the binding signal [6]?
**A.** 0.959

**Q.** And the binding signal [7]?
**A.** 1.03

**Q.** Which binding signal [1] does the source give for CCAAGA here?
**A.** 0.903

**Q.** What about the binding signal [2] of the same sequence?
**A.** 0.932

**Q.** And the binding signal [3]?
**A.** 0.807

**Q.** And the binding signal [4]?
**A.** 0.876

**Q.** And the binding signal [5]?
**A.** 0.94

**Q.** What about the binding signal [6] of the same sequence?
**A.** 0.925

**Q.** What about the binding signal [7] of the same sequence?
**A.** 0.864
